The values below are quoted from earlier work in US20090068174A1, “THERAPEUTIC ALKALINE PROTEASE COMPOSITIONS AND USE IN FACILITATING THE TRANSPORT OF AGENTS ACROSS THE GASTROINTESTINAL MUCOSAL LINING” (Kansas University Medical Center Research Institute, Inc., priority 2007, published 2009).

Where two headings read alike, the source gives them in different places.

For data set [1] the following is noted: Table 4; pH optima vary with substrate; cited from earlier work.
The conditions of data set [2]: Table 1; cited from earlier work.

B1: Alkaline Protease: Aspergillus oryzae alkaline protease (oryzin), SEQ ID NO: 2, purified from the protease powder of Example 1 (protein, listed as Aspergillus oryzae)
chain: MQSIKRTLLLLGAILPAVLGAPVQETRRAAEKLPGKYIVTFKPGIDEAKIQEHTTWATNIHQRSLERRGATGGDLPVGIERNYKINKFAAYAGSFDDATIEEIRKNEDVAYVEEDQIYYLDGLTTQKSAPWGLGSISHKGQQSTDYIYDTSAGEGTYAYVVDSGVNVDHEEFEGRASKAYNAAGGQHVDSIGHGTHVSGTIAGKTYGIAKKASILSVKVFQGESSSTSVILDGFNWAANDIVSKKRTSKAAINMSLGGGYSKAFNDAVENAFEQGVLSVVAAGNENSDAGQTSPASAPDAITVAAIQKSNNRASFSNFGKVVDVFAPGQDILSAWIGSSSATNTISGTSMATPHIVGLSLYLAALENLDGPAAVTKRIKELATKDWKDVKGSPNLLAYNGNA
On to B1, for which the figures for the pH optimum entry in data set [1] and in data set [2] were “pH 7-10” and 7.0-10.0, respectively.

B2: 26 kDa Protease: A. oryzae protease cloned recently by Novozyme, labeled the 26 kDa protease, SEQ ID NO: 3 (protein, listed as Aspergillus oryzae)
chain: HASADAWASSKAISSTSSPSSFKMRFISVSSLLLALAPALNAVPVEVAGSAQGLDVTLSQVGNTRIKAWKNTGSEDVTFVHLNFFKDAAPVQKVSLFRNATEVQFQGIKQRLITEGLSDDALTTLAPGATIEDEFDIASTSDLSEGGTITINSNGLVPITTDNKVTGYIPFTSNELSIDVDAAEAASVTQAVKILERRTKVTSCSGSRLSALQTALRNTVSLARAAATAAQSGSSSRFQEYFKTTSSSTRSTVAARLNAVANEAASTSSGSTTYYCSDVYGYCSSNVLAYTLPSYNIIANCDLYYSYLPALTSTCHAQDQATTTLHEFTHAPGVYSPGTDDLGYGYSAATALSASQALLNADTYALFANAVNLNC
Take B2: the pH optimum in data set [1] is given as 7.0.
